This is one part of the list. Further columns of the screen follow, without active or inactive calls. The list favours compounds with an active or inconclusive main result. Words in brackets tell the shape of the fitted curve; partial curves, single points and poor fits give uncertain potencies.

The experiment is described as follows: qHTS Assay to Find Inhibitors of Chronic Active B-Cell Receptor Signaling. As to conditions: ABC-DLBCL IkBa-CBG/CBR reporter, luminescence ratio (green luciferase fused to IkBa over red control in TMD8 lymphoma cells), 4 h. The gist of the method: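 Cell line TMD8 (human ABC DLBCL), stably expressing tet-inducible CBG68-IkBa fusion and CBR; IMDM/0.5% FBS; cpd up to 46 uM; dox induction, 4 h, 37C/5% CO2; dual luminescence; green/red ratio; MG132 control.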

Where [1] appears, read: measured here: CBR red luminescence, cell number.
[2] abbreviates: measured here: IkBa-CBG green luminescence.

As to `Cc1cc(Br)ccc1SCC(=O)OCC(=O)N1CCN(C(=O)c2ccco2)CC1`, under setting [1], the AC50 was 11.2 µM [falling, partial curve, poor fit]. Same read-out and setting: to `O=C(O)c1cccc(-n2nnnc2SCc2ccccn2)c1` belongs 0.82 µM [rising, full curve]; to `Cc1cccc(OCCNC(=O)CCNS(=O)(=O)c2ccc3ccccc3c2)c1`, 3.66 µM [rising, single point]. Same read-out and setting: to `CCOc1cc(Br)ccc1S(=O)(=O)N1CC(C)OC(C)C1` (stereo unspecified) belongs 29.1 µM [rising, single point]. Take `NC(=O)C(c1ccc(Sc2ccccc2)nn1)c1ccc(Cl)cc1Cl` (stereo unspecified): the AC50 under setting [1] is 20.6 µM [falling, single point]. `COC(=O)c1sccc1NC(=O)Nc1cccc(C)c1C`: the AC50 under setting [1] is 11.2 µM [falling, partial curve]. Regarding `O=C(NCc1ccco1)c1ccccc1NS(=O)(=O)c1cccs1`, the AC50 under setting [1] was 0.82 µM [falling, partial curve, poor fit].

`CCC(C)NS(=O)(=O)c1ccc(NC(=O)C(Sc2ccccc2)c2ccccc2)cc1` (stereo unspecified): the AC50 under setting [1] is 1.46 µM [rising, partial curve, poor fit].

Turning to `Cc1[nH][nH]c(=O)c1N=Nc1ccc(Cl)cc1`, the AC50 under setting [1] is 0.708 µM [rising, full curve, poor fit]. As for `Nc1c(C(=O)CSc2nnc(Cc3ccccc3)o2)c(=O)[nH]c(=O)n1C1CC1`, under setting [1], the AC50 was 0.164 µM [rising, full curve, poor fit].

For `Cn1c(SCC(=O)Nc2nccs2)nnc1-c1ccncc1`, the AC50 under setting [1] was 23.1 µM [falling, partial curve, poor fit]. Still for that read-out and setting: with `COc1ccc(-n2c(Cc3cccs3)nnc2SCC(=O)Nc2ccc3c(c2)OCCO3)cc1` the figure was 20 µM [falling, single point]. Same read-out and setting: to `Cc1ccc2[nH]c(=O)c(CN(Cc3ccccc3)Cc3nnnn3C3CCCC3)cc2c1` belongs 9.2 µM [falling, partial curve]; to `Nc1ncnc2c1ncn2[C@H]1C[C@H](O)[C@@H](CO)O1`, 9.2 µM [rising, partial curve]. Regarding `CCOc1cc(/C=N/NC(N)=S)cc(Br)c1OCc1ccccc1C`, the AC50 is 8.2 µM [rising, partial curve] under setting [1] and 5.8 µM [falling, full curve] under setting [2]. Take `CN(C)c1ccc(C#Cc2ccc3cc(CCO)oc(=O)c3c2)cc1`: the AC50 under setting [1] was 0.517 µM [rising, full curve]. Turning to `COc1ccc(CCN2C(=O)C3C4CC(C5C(C(=O)NN)=NOC45)C3C2=O)cc1OC` (stereo unspecified), under setting [1], the AC50 was 6.51 µM [rising, single point]. On the same count and under the same terms, with `COc1cc(C(=O)Nc2ccc(C(N)=O)cc2)c([N+](=O)[O-])cc1OC` the figure was 3.55 µM [falling, partial curve, poor fit]. As for `CCc1nc(N2CCN(C(=O)c3ccccc3)CC2)c2c3c(sc2n1)CCCC3`, the AC50 under setting [1] was 20 µM [falling, partial curve, poor fit] and the AC50 under setting [2] was 15.8 µM [rising, single point]. For the compound `Cc1cc(C)n(/N=C\c2c(O)ccc3ccccc23)c(=O)c1C(N)=O`, under setting [1], the half-maximal activity concentration (AC50) is 0.00461 µM [falling, full curve, poor fit].

As to `CCCn1c(O)c(N=Nc2ccc3ccccc3n2)c2ccccc21`, under setting [1], the AC50 is 0.103 µM [falling, full curve, poor fit]. On the same count and under the same terms, with `CCOC(=O)c1ccc(NS(=O)(=O)CC)cc1` the figure was 3.66 µM [rising, single point]; with `Cc1ccc([N+](=O)[O-])c(OCCN2CCNCC2)c1`, 0.092 µM [falling, full curve, poor fit]. On the same count and under the same terms, with `O=C(Nc1ccccc1)Nc1cccc(-c2cn3cccnc3n2)c1` the figure was 35.5 µM [rising, single point]; with `O=C(NCCc1cn2ccccc2n1)c1ccccc1F`, 20 µM [falling, partial curve, poor fit]; with `COc1cc(CNCc2c[nH]c3ccccc23)cc(OC)c1`, 15.8 µM [falling, partial curve, poor fit]. Still for that read-out and setting: with `COc1cc(CCC(C)=O)ccc1OC(=O)c1c(F)cccc1Cl` the figure was 2.82 µM [rising, full curve, poor fit]; with `CCOc1ccc(CN(C)C(=O)c2cccc(S(=O)(=O)N3CCCC3)c2)cc1OC`, 29.1 µM [rising, single point]. As for `O=C(NCCS(=O)(=O)N1CCN(c2ccccc2)CC1)c1cccc(F)c1`, the AC50 under setting [1] was 14.6 µM [falling, partial curve]. On the same count and under the same terms, with `Cc1ccc2nc(SCC(=O)Nc3ccc(F)cc3F)nc(=O)n2c1` the figure was 16.4 µM [falling, partial curve]; with `CC(=O)Nc1ccccc1NC(=O)C/C(C)=N/NC(=O)C(=O)N1CCCCC1`, 1.26 µM [rising, partial curve, poor fit]; with `O=C1c2cccc(OCC(=O)N3CCCc4ccccc43)c2CCN1Cc1ccccc1`, 20.6 µM [falling, partial curve]. On the same count and under the same terms, to `COc1ccccc1CC(=O)Nc1ccon1` belongs 0.355 µM [rising, full curve, poor fit]; to `NC(=O)c1oc2ccccc2c1NC(=O)CS(=O)(=O)c1ccccc1`, 8.91 µM [falling, partial curve, poor fit].

For the compound `COCc1cc(N2CCOCC2)nc(SCc2ccc(Cl)cc2)n1`, the concentration at half-maximal activity (AC50) under setting [1] is 0.631 µM [falling, full curve, poor fit]. Same read-out and setting: to `CC1CCN(S(=O)(=O)c2cccc(C(=O)N3CCN(c4ccc(F)cc4)CC3)c2)CC1` belongs 35.5 µM [falling, single point]; to `O=C(NCCCn1ccnc1)C(F)(F)C(F)(F)C(=O)NCCCn1ccnc1`, 20.6 µM [rising, partial curve, poor fit]; to `CC(=O)Nc1ccc(-c2nc3c(C)cccc3[nH]2)cc1`, 29.1 µM [falling, single point]. Same read-out and setting: with `COc1c(O)cc(O)c2c(=O)cc(-c3ccccc3)oc12` the figure was 9.2 µM [falling, partial curve, poor fit]; with `CCn1c2ccccc2c2cc(/C=N/NC(=O)c3cccc(C)c3)ccc21`, 0.794 µM [falling, full curve, poor fit]; with `Cc1ccc(CNC(=O)c2ccc3c(=O)n(CCCN4CCCC4=O)c(=S)[nH]c3c2)cc1`, 0.517 µM [rising, full curve, poor fit].

For the compound `COc1ccc2cc3c(N)nn(C(=O)c4ccccc4[N+](=O)[O-])c3nc2c1`, the AC50 under setting [1] is 2.59 µM [falling, partial curve]. Regarding `O=C(O)c1ccc2c(c1)OCCO2`, the AC50 under setting [1] is 0.411 µM [rising, partial curve, poor fit]. For `Cc1nnc(SCCN2CCOCC2)n1-c1cccc(Cl)c1`, the AC50 under setting [1] is 6.51 µM [rising, single point]. On the same count and under the same terms, with `N#C/C(=C\c1cccnc1)C(=O)Nc1cccc(Cl)c1` the figure was 35.5 µM [falling, single point]; with `COc1ccccc1CNS(=O)(=O)CC12CCC(CC1=O)C2(C)C` (stereo unspecified), 35.5 µM [rising, single point]; with `Cc1cccc(NC(=O)N2C3CCCC2CC(NC(=O)C(C)(C)C)C3)c1` (stereo unspecified), 14.1 µM [rising, single point]. Turning to `S=c1[nH]c2ccc(Cl)cc2s1`, the AC50 is, setting by setting: under setting [1], 11.2 µM [rising, single point]; under setting [2], 17.8 µM [falling, partial curve, poor fit].

Consider `Cc1cc(C)c(C(=O)N2CCCC(N3CCN(c4cccc(C(F)(F)F)c4)CC3)C2)o1` (stereo unspecified), for which, under setting [1], the AC50 is 20 µM [falling, partial curve, poor fit]. Regarding `C=CCn1c(-c2ccc(Cl)cc2)cnc1SC(C)C(=O)NC(N)=O` (stereo unspecified), the AC50 under setting [1] is 11.2 µM [falling, partial curve]. The same measure, in the same setting: to `Cc1ccnc(NC(=O)CSc2ccccn2)c1` belongs 14.1 µM [falling, single point]. In the case of `CCOc1ccccc1Nc1cc(C)nc2nc(C)nn12`, the AC50 under setting [1] was 8.2 µM [rising, partial curve, poor fit]. On the same count and under the same terms, with `CN1CCC(N(C)CC(O)c2ccccc2)CC1` (stereo unspecified) the figure was 15.8 µM [falling, partial curve, poor fit]. Still for that read-out and setting: to `Nc1ncnc2c1ncn2[C@@H]1O[C@H](CNC(=O)[C@@H](N)Cc2ccc(C(F)(F)F)cc2)[C@@H](O)[C@H]1O` belongs 0.92 µM [rising, full curve, poor fit]; to `Cc1nn(C)c(Cl)c1CN1CCN(C2CCCC2)C(CCO)C1` (stereo unspecified), 35.5 µM [falling, single point]; to `Cc1cccc(C2=NC(C(F)(F)F)(C(F)(F)F)c3c(n(-c4ccc(F)cc4)c(=O)[nH]c3=O)N2)c1`, 23.1 µM [rising, partial curve, poor fit]. Still for that read-out and setting: to `Cc1ccccc1OCCNC(=O)CSc1ccc(C(F)(F)F)cc1[N+](=O)[O-]` belongs 18.4 µM [falling, single point]; to `Cc1cc(NC(=O)COC(=O)C(Nc2ccc(C(F)(F)F)cc2Cl)C(C)C)no1` (stereo unspecified), 20.6 µM [falling, single point]; to `CCOc1ccc2[nH]cc(S(=O)(=O)c3ccc(F)cc3)c(=O)c2c1`, 6.51 µM [falling, single point]. With `CC(=O)Oc1c(C)c2c3c(c1OC(C)=O)[C@@H](C)CC[C@@H]3[C@@H](C)C[C@H]2C=C(C)C`, the AC50 under setting [2] is 11.6 µM [rising, partial curve, poor fit]. As to `CC(=O)Oc1ccc2c(c1)cc(C)n2C`, the AC50 under setting [1] is 1.16 µM [falling, partial curve, poor fit]. For `O=C1c2ccccc2C(=O)N1CCOCCN1C(=O)c2ccccc2C1=O`, the AC50 under setting [1] was 14.1 µM [rising, partial curve, poor fit]. Still for that read-out and setting: with `CCOc1ccc(S(=O)(=O)NCCC(=O)NCc2ccc(OC)c(OC)c2)cc1` the figure was 3.66 µM [rising, partial curve, poor fit].

Source of the values: PubChem BioAssay AID493014 (National Center for Advancing Translational Sciences (NCATS), 2011).
